No constants are given. Whether binding was seen depends on the method and setting. Some results given as binding are weak or reduced against the parent protein; the word gives no strength.
How the values were obtained:
[1] = target: human complement component 5 (C5) (human) (UniProt P01031); assay: binding curves to hC5 at pH 5.5 (FIG. 14)
[2] = target: human complement component 5 (C5) (human) (UniProt P01031); assay: SPR (Biacore), binding to hC5 over time at pH 5.5; antibody with IgG2 Fc

Chains of the proteins cited; added tags and fusions are not shown. Residues count along the entry.
UniProt P01031, residues 19-1676: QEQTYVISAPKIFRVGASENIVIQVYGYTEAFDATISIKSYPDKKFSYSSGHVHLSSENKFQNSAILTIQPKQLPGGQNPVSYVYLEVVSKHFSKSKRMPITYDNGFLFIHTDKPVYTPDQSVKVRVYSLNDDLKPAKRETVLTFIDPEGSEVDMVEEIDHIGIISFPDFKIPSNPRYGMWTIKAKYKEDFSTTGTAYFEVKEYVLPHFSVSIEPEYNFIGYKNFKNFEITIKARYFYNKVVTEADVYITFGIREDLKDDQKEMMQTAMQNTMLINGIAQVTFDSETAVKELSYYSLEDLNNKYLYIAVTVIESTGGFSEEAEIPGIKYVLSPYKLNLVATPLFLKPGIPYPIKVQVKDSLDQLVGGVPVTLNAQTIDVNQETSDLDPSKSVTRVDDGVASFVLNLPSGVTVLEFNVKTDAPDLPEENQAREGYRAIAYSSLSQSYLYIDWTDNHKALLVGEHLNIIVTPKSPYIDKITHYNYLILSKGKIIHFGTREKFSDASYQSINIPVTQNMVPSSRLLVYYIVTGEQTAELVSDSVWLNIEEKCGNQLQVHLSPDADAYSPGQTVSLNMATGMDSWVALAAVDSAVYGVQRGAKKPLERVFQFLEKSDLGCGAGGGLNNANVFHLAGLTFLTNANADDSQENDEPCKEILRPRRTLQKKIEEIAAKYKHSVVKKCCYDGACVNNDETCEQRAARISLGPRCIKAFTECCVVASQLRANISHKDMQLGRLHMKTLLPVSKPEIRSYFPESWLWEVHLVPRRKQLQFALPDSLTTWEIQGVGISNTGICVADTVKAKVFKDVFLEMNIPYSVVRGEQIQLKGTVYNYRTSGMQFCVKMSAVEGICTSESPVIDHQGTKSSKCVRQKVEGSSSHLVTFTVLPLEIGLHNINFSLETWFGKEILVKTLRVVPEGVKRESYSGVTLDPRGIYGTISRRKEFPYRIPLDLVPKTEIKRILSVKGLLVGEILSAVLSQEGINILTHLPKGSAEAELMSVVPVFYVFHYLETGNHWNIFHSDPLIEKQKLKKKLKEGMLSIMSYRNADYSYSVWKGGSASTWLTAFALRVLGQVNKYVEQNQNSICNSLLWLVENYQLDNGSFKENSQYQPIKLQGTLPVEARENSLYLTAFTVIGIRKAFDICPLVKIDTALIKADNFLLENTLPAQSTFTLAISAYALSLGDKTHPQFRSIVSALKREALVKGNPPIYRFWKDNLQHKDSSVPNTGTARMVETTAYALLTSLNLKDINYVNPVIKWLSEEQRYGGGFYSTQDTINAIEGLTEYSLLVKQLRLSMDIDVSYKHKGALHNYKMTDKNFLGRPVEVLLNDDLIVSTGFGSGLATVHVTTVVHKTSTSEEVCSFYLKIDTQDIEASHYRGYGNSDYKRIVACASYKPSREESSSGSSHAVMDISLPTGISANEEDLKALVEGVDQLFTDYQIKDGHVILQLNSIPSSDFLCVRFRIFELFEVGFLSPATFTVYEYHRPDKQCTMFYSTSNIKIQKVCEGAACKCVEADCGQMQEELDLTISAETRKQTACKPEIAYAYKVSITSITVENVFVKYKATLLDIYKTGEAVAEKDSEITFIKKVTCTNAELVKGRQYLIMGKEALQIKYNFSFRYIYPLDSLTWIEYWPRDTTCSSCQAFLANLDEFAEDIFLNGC

binding [1]: binds
binding [2]: binds
B1: Antibody D (antibody, human IgG2, kappa)
heavy: QVQLVQSGAEVKKPGASVKVSCKASGYIFSNYWIQWVRQAPGQGLEWMGEILPGSGSTEYTENFKDRVTMTRDTSTSTVYMELSSLRSEDTAVYYCARYHFGSSPNWYFDVWGQGTLVTVSSASTKGPSVFPLAPCSRSTSESTAALGCLVKDYFPEPVTVSWNSGALTSGVHTFPAVLQSSGLYSLSSVVTVPSSNFGTQTYTCNVDHKPSNTKVDKTVERKCCVECPPCPAPPVAGPSVFLFPPKPKDTLMISRTPEVTCVVVDVSHEDPEVQFNWYVDGVEVHNAKTKPREEQFNSTFRVVSVLTVVHQDWLNGKEYKCKVSNKGLPAPIEKTISKTKGQPREPQVYTLPPSREEMTKNQVSLTCLVKGFYPSDIAVEWESNGQPENNYKTTPPMLDSDGSFFLYSKLTVDKSRWQQGNVFSCSVMHEALHNHYTQKSLSLSPGK
light: DIQMTQSPSSLSASVGDRVTITCGASENIYGALNWYQQKPGKAPKLLIYGATNLADGVPSRFSGSGSGTDFTLTISSLQPEDFATYYCQNVLHTPLTFGQGTKVEIKRTVAAPSVFIFPPSDEQLKSGTASVVCLLNNFYPREAKVQWKVDNALQSGNSQESVTEQDSKDSTYSLSSTLTLSKADYEKHKVYACEVTHQGLSSPVTKSFNRGEC

Reference: US20190085095A1
